Experimental data: PubChem BioAssay AID504444 (National Center for Advancing Translational Sciences (NCATS), 2011)
Values joined by “and” are separate entries in the source; they are usually repeats but may differ in a detail not shown here. Equal entries are not always repeated. Among all 360,000 compounds or so, about 7,500 (2.1%) were called active. This list was built around the results that the source calls inconclusive (neither active nor inactive); the mix of calls is not that of the screen. Calls come from the whole dose curve; as a rule, active = well fitted inhibition curve with a large enough effect; inconclusive = small, poorly fitted or top-dose-only effect, or effect the other way; inactive = flat fitted curve, though single readings scatter. Where the call is inconclusive, the potency comes from a doubtful curve fit.
Potency is the fitted concentration of half-maximal effect.

Test: Nrf2 qHTS screen for inhibitors; note: nearly all actives have a fitted effect of over 60% in size
Conditions: A549 ARE-Fluc reporter, luciferase luminescence, 18-24 h; series mostly up to 46 µM
Procedure, shortened: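 A549 ARE_Fluc cells, 5000/well, 5% FBS OPTI-MEM; compounds in dose-response, 18-24 h at 37 °C/5% CO2; CellTiter-Fluor viability read (Ex 405/Em 525), then BugLite luciferase luminescence = Nrf2 activity.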
For `Cc1cc(C)c2oc(-c3cccc(NC(=O)c4cccc(F)c4)c3C)nc2c1`, the Potency was inconclusive: 8.2 µM [falling, partial curve]. With `O=C(CSCc1ccccc1)N1CCc2ccccc21` the Potency was inconclusive: 3.26 µM [activator, partial curve, poor fit]. For `Cc1ccc(C(C)C)c(OCC(=O)NS(=O)(=O)c2ccc(Cl)cc2)c1`, the Potency was inconclusive: 18.4 µM [falling, partial curve, poor fit]. In the case of `CC(C)(C)c1ccc(OCc2ccc(C(=O)NCc3cccnc3)o2)cc1`, the Potency is reported as inconclusive: 1.46 µM [activator, partial curve]. For `COc1ccccc1-n1c(-c2ccccc2)c[n+]2c1CCc1ccccc1-2`, the Potency was active: 18.4 µM and active: 3.66 µM. With `Cc1ccc(N2C(=O)CC(NNc3nc4ccccc4s3)C2=O)cc1C` (stereo unspecified) the Potency was “inactive”. In the case of `Cc1cccc(NC(=O)CSc2nc(-c3cccs3)nc3cc(=O)[nH]n23)c1`, the Potency is reported as inconclusive: 29.1 µM [falling, single point]. For `COc1ccc(Br)cc1C(=O)Nc1ccccc1N1CCN(C(=O)c2ccccc2)CC1`, the Potency was inconclusive: 10.3 µM [falling, partial curve]. For `Cc1ccc(S(=O)(=O)N2CCN(c3nc(-c4ncco4)nc4ccccc34)CC2)cc1`, the Potency was inconclusive: 23.1 µM [falling, partial curve, poor fit]. With `Cc1cccc(-c2nc3c4ccccc4nc(N4CCN(c5cccc(Cl)c5)CC4)n3n2)c1` the Potency was inconclusive: 6.51 µM [activator, full curve]. For `CCN(C(=O)c1ccco1)c1nc(CC(=O)Nc2ccc(Cl)cc2)cs1`, the Potency was inconclusive: 29.1 µM [falling, single point]. With `COc1ccc(/C=C2\OC(=O)c3c(OC)cccc32)cc1OC` the Potency was inconclusive: 1.84 µM [activator, partial curve, poor fit]. With `COc1ccccc1CNC(=O)CN1C(=O)c2cccc(N)c2C1=O` the Potency was inconclusive: 7.31 µM [activator, partial curve]. In the case of `CCOC(=O)c1c(NC(=O)CSc2ncccn2)sc(C(=O)NC)c1C`, the Potency is reported as inconclusive: 10.3 µM [falling, partial curve, poor fit]. For `O=C1C=C(c2ccc3ncccc3c2)C[C@@H](c2ccc3c(c2)OCO3)C1`, the Potency was inconclusive: 14.6 µM [falling, single point]. For `O=C(c1ccc(Cl)cc1)C1CCCN(Cc2ccc(Oc3ncccn3)cc2)C1` (stereo unspecified), the Potency was inconclusive: 16.4 µM [falling, partial curve, poor fit]. For `COc1ccc(NS(=O)(=O)c2cccc3nsnc23)cc1OC`, the Potency was inconclusive: 1.46 µM [falling, full curve, poor fit]. With `CC1(C)CC(=O)C=C(NNC(=O)c2ccccc2O)C1` the Potency was inconclusive: 20.6 µM [falling, single point]. In the case of `COc1ccc(OC)c(S(=O)(=O)N2CCC(C(=O)Nc3ccc(C)c(C)c3)CC2)c1`, the Potency is reported as inconclusive: 25.9 µM [falling, single point]. With `CC(C)N(C(=O)[C@H]1C[C@H](CC(=O)NC(C)(C)C)C(=O)N2CCc3c([nH]c4cc(-c5ccco5)ccc34)[C@]12C)C(C)C` the Potency was inconclusive: 29.1 µM [falling, single point]. In the case of `COC(=O)Cn1nc(-c2ccc(C)c(S(=O)(=O)N(C)C)c2)c2ccccc2c1=O`, the Potency is reported as “inactive”. With `COc1ccc(C2=NOC(Cn3nc(C(=O)NCC4CC4)cc3-c3ccccc3)C2)cc1` (stereo unspecified) the Potency was inconclusive: 29.1 µM [falling, single point]. In the case of `CCC(=O)N1CCCc2cc(S(=O)(=O)N3CCCc4ccccc43)ccc21`, the Potency is reported as inconclusive: 29.1 µM [falling, single point]. For `Cn1c(Cc2ccccc2)nnc1SCC(=O)Nc1ccccc1N1CCOCC1`, the Potency was inconclusive: 2.59 µM [falling, partial curve]. For `Cc1ccc(NC(=O)C[n+]2ccccc2)cc1C`, the Potency was inconclusive: 14.6 µM [falling, partial curve, poor fit]. With `CC(C)NC(=O)CSc1nnc(-c2ccc(C(C)(C)C)cc2)n1C` the Potency was “inactive”. For `N#Cc1ccc(COn2nnc3ccccc32)cc1`, the Potency was inconclusive: 11.6 µM [activator, partial curve]. For `COc1cc(OC)c(OC)cc1/C=C1\Oc2cc(OS(C)(=O)=O)ccc2C1=O`, the Potency was “inactive”. With `O=C(O)c1ccccc1NN=Cc1ccccc1` the Potency was inconclusive: 10.3 µM [activator, partial curve]. In the case of `O=C(Nc1ccc2c(c1)CCC2)Nc1ccc2c(c1)OCO2`, the Potency is reported as inconclusive: 20.6 µM [activator, single point]. With `Cc1ccccc1NC(=O)c1ccccc1NS(=O)(=O)c1cccc2cccnc12` the Potency was “inactive”. For `COCCn1c(=O)[nH]c2cc(C(=O)N3CCN(Cc4ccc5c(c4)OCO5)CC3)ccc2c1=O`, the Potency was active: 11.6 µM. For `Cc1cccc(Cn2c(=O)n(-c3cc(C)cc(C)c3)c(=O)c3oc4ccccc4c32)c1`, the Potency was “inactive”. For `COc1ccc(C(=O)/C=C/Nc2ccc(S(=O)(=O)Nc3nc(C)cc(C)n3)cc2)cc1OC`, the Potency was inconclusive: 6.51 µM [activator, partial curve, poor fit]. In the case of `COc1ccc(NC(=O)Cn2c(=O)n(-c3ccccc3)c(=O)c3oc4ccccc4c32)c(OC)c1`, the Potency is reported as inconclusive: 23.1 µM [falling, single point]. With `COc1ccc(COC(=O)c2ccc(Cl)c(S(=O)(=O)N3CCOCC3)c2)cc1F` the Potency was “inactive”. In the case of `Cc1cc(C)c2c(n1)nn1c(C)c(CCC(=O)Nc3cccc(C)c3C)c(C)nc21`, the Potency is reported as “inactive”. For `CCSC1=NCCN1C(=O)c1ccc(S(=O)(=O)N(CC)CC)cc1`, the Potency was inconclusive: 29.1 µM [falling, single point]. With `CC(=O)Nc1cc2c(cc1[N+](=O)[O-])OCCO2` the Potency was inconclusive: 5.8 µM [falling, partial curve, poor fit]. With `C/C(=N/OCO/N=C(\C)c1ccccc1)c1ccccc1` the Potency was inconclusive: 29.1 µM [activator, single point]. For `CCOC(=O)c1cnc2c(OC)cccc2c1N1CCN(c2ccccn2)CC1`, the Potency was inconclusive: 29.1 µM [falling, partial curve, poor fit]. With `NCCNc1ccc(C(=O)N2c3ccccc3Sc3ccccc32)cc1[N+](=O)[O-]` the Potency was “inactive”. For `CC1CCN(CCCCOc2ccccc2-c2ccccc2)CC1`, the Potency was “inactive”. With `COc1ccc(S(=O)(=O)N2CCC(C(=O)N[C@H](C(=O)N3CCCCCC3)C(C)C)CC2)cc1` the Potency was inconclusive: 29.1 µM [activator, single point]. For `O=C(Nc1ccccc1)c1nc[nH]c1C(=O)NCCCCCCNC(=O)c1[nH]cnc1C(=O)Nc1ccccc1`, the Potency was inconclusive: 16.4 µM [falling, single point]. For `COC(=O)C1=CNC=C(C(=O)OC)C1c1ccc(C(=O)OC)cc1`, the Potency was “inactive”. For `CC12CCC(=O)N1C(C(=O)Nc1ccc(S(=O)(=O)N3CCCCC3)cc1)CS2` (stereo unspecified), the Potency was “inactive”. In the case of `CSc1nc(C)cc(Nc2c(C)cc(C)cc2C)n1`, the Potency is reported as inconclusive: 18.4 µM [falling, partial curve]. With `CCOC(=O)c1ccccc1NC(=O)N1CCn2c(C)ccc2C1CC` (stereo unspecified) the Potency was “inactive”. For `COc1cccc(C(=O)Nc2ccc(Cl)c(-c3nc4ccccc4[nH]3)c2)c1`, the Potency was inconclusive: 18.4 µM [falling, single point]. In the case of `CCc1ccc(NC(=O)Cn2cnc3c(=O)n(C)c(=O)n(C)c32)cc1`, the Potency is reported as inconclusive: 0.58 µM [activator, full curve]. For `CCc1ccc(OCCCSc2nc(-c3ccc(C(C)(C)C)cc3)nc3cc(=O)[nH]n23)cc1`, the Potency was inconclusive: 23.1 µM [falling, single point]. For `O=C(O)CNc1nc(-c2ccccc2)nc2ccccc12`, the Potency was inconclusive: 29.1 µM [activator, single point]. With `Cc1ccc(N=C/C(C(=O)C(F)(F)F)=C(\O)c2ccco2)cc1Cl` the Potency was inconclusive: 11.6 µM [activator, partial curve]. For `CC(C)(C)OC(=O)N1CCC(NC(=O)c2[nH]cnc2C(=O)Nc2cccc(Cl)c2)CC1`, the Potency was inconclusive: 23.1 µM [falling, single point]. In the case of `O=c1c(C=Nc2ccc(Cl)cc2)c[nH]n1-c1cccc(Cl)n1`, the Potency is reported as “inactive”. For `COc1cc(NC(=O)c2cc(-c3cccnc3)nc3ccc(Br)cc23)cc(OC)c1`, the Potency was inconclusive: 18.4 µM [falling, single point]. In the case of `Fc1ccc2c(Cl)c(-c3nnc(-c4cccs4)o3)sc2c1`, the Potency is reported as inconclusive: 0.326 µM [activator, full curve]. In the case of `CC1CCN(CC(=O)Nc2ccccc2-c2ccccc2)CC1`, the Potency is reported as inconclusive: 4.11 µM [falling, partial curve, poor fit]. For `O=C1c2ccccc2C(=O)c2[nH]cnc21`, the Potency was “inactive”. With `CC(C)C[C@@H](CSc1ccc(Br)cc1)N1CCN(CC(C)C)CCC1=O` the Potency was inconclusive: 20.6 µM [activator, partial curve]. With `CCCc1nnc(NC(=O)COC(=O)c2cc(C)nc3ccccc23)s1` the Potency was “inactive”. With `Oc1ccc2c(c1)OCC1(O)Cc3cc(O)c(O)cc3C21` (stereo unspecified) the Potency was inconclusive: 29.1 µM [falling, single point]. With `Nc1nc(N)nc(-c2ccc(Cl)c(Cl)c2)n1` the Potency was inconclusive: 29.1 µM [falling, single point]. For `CCN1C(=O)c2cccc3c(NC(=O)c4ccc(S(=O)(=O)N5CCOCC5)cc4)ccc1c23`, the Potency was inconclusive: 6.51 µM [falling, partial curve, poor fit]. With `CSc1ncc(Cl)c(C(=O)Nc2ccc(S(=O)(=O)N3CCC(C)CC3)cc2)n1` the Potency was active: 20.6 µM.
